Some of the results follow. Most values lie at the level of the controls, where differences are scatter.
Each target was assayed with CN[C@@H]1C[C@H]2O[C@@](C)([C@@H]1OC)n1c3ccccc3c3c4c(c5c6ccccc6n2c5c31)C(=O)NC4 [staurosporine] (assay: log2 fold change of tryptic peptide abundance, ligand vs vehicle (limited proteolysis) (log2 ratio); higher = more trypsin-susceptible (destabilized)). Conditions: ligand concentration: 20 uM; sample: mouse liver crude lysate; replicate design: treated separately.

Amino acid sequences for entries named in this document (tags omitted). A change or cut given only in a name is not applied to a line headed by its entry.
UniProt Q7TQ95: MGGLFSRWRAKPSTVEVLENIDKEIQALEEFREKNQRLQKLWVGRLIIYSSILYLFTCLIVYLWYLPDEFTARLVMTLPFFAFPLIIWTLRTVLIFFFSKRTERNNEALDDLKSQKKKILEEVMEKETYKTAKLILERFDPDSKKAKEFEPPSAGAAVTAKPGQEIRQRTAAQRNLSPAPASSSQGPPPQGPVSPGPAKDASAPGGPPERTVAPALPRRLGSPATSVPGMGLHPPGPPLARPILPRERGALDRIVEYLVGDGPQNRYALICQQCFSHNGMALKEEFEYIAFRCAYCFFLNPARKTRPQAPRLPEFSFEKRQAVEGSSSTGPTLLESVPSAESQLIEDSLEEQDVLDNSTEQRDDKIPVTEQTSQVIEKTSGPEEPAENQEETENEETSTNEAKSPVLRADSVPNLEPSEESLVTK
UniProt Q80U30: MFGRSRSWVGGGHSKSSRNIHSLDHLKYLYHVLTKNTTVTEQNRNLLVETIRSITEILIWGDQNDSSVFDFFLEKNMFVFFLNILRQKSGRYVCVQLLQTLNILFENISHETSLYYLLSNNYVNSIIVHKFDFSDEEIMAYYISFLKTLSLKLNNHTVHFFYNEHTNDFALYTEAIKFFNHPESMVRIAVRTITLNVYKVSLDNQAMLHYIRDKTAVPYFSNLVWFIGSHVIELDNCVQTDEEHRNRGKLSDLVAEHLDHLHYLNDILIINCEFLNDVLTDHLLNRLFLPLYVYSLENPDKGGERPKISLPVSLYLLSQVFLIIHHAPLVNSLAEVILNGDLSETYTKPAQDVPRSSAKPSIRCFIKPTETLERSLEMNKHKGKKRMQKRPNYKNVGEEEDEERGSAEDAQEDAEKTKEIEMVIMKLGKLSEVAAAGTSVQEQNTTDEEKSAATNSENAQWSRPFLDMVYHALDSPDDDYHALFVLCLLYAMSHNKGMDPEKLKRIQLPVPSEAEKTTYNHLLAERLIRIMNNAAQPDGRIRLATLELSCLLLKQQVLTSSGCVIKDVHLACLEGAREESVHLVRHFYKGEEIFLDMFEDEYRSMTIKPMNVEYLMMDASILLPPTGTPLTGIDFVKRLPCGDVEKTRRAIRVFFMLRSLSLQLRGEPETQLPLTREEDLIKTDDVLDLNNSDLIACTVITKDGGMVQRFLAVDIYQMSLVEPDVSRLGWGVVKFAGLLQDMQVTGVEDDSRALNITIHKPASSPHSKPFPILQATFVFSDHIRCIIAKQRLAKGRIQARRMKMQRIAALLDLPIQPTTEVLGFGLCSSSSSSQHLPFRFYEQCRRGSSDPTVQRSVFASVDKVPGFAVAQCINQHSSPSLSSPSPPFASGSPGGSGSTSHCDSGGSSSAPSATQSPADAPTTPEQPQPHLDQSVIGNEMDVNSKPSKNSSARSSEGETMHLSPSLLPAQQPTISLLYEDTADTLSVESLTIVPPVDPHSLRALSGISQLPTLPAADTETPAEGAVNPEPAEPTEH
UniProt Q7TN98: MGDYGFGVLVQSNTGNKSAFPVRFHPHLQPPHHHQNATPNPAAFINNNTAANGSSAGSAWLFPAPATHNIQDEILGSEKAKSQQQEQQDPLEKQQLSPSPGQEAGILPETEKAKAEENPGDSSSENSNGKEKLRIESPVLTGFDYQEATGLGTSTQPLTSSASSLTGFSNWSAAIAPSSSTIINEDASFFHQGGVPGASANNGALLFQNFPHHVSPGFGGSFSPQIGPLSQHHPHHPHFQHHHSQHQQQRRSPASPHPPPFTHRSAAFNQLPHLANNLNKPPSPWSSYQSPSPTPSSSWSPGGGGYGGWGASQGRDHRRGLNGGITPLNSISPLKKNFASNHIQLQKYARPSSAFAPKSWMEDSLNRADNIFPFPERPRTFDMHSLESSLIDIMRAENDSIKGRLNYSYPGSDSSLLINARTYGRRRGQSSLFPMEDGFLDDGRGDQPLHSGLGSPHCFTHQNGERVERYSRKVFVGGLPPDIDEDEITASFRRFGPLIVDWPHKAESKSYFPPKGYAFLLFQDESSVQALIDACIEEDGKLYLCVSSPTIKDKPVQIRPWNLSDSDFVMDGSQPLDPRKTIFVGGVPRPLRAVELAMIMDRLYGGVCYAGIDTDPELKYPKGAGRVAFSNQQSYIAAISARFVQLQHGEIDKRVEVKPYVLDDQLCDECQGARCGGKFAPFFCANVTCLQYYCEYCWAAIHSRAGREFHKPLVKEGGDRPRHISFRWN
UniProt Q71LX4: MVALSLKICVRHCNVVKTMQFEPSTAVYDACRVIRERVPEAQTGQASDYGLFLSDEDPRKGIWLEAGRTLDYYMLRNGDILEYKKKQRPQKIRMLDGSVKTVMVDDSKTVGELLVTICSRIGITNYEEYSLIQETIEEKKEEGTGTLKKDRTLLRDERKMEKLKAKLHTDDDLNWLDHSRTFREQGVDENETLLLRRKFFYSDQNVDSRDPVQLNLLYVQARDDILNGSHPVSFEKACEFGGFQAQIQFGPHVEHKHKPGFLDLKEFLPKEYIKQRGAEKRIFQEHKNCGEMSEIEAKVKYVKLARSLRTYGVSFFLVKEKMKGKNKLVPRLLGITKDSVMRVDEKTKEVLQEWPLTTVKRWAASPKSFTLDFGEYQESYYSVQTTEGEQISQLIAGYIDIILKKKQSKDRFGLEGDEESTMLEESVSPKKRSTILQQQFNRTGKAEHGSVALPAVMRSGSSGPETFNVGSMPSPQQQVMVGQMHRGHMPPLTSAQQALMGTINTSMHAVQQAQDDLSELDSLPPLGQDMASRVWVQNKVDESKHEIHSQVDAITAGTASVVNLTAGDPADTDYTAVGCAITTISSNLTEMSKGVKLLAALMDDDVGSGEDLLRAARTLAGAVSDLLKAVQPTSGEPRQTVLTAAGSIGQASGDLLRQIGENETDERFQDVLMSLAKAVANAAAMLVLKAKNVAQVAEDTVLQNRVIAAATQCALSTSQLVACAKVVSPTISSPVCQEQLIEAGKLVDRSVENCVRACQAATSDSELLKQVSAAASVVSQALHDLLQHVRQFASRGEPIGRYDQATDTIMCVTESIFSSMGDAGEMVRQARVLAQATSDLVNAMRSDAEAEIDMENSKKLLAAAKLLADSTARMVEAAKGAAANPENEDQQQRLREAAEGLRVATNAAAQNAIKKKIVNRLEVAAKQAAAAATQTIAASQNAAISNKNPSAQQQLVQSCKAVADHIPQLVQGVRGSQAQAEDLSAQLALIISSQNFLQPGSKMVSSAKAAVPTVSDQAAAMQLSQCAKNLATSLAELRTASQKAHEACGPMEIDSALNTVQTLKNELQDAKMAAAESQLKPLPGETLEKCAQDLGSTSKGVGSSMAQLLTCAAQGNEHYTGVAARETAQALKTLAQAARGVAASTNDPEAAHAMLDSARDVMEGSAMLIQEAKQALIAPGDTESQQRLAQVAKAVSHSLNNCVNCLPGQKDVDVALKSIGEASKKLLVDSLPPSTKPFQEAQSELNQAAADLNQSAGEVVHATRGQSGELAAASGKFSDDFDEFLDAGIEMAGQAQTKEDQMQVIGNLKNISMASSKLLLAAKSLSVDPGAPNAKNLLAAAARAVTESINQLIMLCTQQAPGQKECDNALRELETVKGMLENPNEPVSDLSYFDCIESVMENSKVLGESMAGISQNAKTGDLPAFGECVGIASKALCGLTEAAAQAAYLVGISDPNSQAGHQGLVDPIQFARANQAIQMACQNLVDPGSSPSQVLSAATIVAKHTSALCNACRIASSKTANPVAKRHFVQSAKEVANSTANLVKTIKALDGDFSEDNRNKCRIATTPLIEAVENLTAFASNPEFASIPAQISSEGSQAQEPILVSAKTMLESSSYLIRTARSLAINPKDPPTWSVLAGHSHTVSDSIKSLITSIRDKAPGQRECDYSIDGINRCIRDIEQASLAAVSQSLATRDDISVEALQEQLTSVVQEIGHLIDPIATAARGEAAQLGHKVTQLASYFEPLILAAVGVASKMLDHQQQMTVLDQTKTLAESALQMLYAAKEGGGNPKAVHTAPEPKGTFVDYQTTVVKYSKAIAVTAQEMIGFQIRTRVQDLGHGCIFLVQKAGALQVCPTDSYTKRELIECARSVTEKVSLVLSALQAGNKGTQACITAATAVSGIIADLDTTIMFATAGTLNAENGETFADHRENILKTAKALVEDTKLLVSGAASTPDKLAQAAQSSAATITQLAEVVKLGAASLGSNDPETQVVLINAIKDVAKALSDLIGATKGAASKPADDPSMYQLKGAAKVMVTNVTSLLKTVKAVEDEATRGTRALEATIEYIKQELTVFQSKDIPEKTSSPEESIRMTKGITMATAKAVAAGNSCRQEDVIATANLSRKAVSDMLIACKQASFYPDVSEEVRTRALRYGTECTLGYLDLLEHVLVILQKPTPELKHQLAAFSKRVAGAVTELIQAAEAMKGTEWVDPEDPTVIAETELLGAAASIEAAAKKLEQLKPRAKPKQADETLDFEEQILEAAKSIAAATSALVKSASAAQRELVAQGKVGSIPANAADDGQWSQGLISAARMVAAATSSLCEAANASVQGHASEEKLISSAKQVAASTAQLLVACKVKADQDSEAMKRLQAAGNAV
UniProt Q80US4, whole entry: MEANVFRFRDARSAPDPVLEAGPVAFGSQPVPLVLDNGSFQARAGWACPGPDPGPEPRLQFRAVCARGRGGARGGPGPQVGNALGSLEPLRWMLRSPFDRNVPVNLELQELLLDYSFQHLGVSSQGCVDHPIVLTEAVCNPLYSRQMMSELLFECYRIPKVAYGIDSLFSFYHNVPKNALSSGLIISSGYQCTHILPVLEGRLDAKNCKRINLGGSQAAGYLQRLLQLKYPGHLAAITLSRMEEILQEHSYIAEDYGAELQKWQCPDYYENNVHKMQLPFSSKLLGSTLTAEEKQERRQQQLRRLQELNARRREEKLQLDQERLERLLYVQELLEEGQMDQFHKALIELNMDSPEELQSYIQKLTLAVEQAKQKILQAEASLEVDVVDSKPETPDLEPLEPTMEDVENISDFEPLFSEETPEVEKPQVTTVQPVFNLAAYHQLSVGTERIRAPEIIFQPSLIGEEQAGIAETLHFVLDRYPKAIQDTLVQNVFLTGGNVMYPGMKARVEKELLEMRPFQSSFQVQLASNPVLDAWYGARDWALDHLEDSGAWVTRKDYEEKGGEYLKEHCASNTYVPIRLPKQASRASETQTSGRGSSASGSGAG
UniProt Q80TE0: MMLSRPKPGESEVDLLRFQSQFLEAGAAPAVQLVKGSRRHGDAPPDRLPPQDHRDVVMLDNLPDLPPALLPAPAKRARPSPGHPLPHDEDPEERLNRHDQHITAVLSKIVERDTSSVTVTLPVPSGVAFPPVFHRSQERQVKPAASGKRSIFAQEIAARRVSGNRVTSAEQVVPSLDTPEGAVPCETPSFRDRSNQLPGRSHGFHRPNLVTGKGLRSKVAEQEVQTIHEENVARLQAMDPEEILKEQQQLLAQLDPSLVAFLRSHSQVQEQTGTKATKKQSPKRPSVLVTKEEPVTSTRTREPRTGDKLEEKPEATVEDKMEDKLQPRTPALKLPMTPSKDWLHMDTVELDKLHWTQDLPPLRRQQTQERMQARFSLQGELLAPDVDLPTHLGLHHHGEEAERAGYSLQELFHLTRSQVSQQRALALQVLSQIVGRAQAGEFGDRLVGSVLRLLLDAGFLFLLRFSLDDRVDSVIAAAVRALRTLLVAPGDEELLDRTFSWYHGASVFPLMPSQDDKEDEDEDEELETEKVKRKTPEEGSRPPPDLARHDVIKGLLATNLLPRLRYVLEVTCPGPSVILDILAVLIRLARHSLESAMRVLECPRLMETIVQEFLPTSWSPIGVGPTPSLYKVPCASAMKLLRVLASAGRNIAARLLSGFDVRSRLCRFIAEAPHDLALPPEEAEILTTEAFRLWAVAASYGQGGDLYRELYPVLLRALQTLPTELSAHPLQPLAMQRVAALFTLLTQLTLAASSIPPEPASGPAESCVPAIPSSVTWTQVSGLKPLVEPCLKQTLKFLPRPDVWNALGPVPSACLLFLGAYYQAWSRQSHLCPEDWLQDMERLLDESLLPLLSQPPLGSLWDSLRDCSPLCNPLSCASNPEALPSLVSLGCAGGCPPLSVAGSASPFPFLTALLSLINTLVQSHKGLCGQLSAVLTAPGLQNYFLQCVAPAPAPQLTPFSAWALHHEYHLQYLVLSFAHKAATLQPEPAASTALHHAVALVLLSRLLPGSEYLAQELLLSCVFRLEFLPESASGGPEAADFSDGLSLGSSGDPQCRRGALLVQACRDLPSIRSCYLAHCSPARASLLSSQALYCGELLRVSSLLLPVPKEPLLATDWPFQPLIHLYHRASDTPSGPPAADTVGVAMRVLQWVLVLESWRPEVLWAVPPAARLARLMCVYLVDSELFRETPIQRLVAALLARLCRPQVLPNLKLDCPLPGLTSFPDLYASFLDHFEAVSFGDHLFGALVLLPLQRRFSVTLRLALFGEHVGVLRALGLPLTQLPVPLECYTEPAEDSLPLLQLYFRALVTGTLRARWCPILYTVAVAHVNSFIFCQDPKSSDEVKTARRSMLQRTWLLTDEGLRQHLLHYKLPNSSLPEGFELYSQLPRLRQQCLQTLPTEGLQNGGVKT

Row | Target | log2 fold change
1 | UniProt Q7TQ95 (peptide sequence: NNEALDDLK, peptide start residue: 105) | 0.42
2 | UniProt Q80U30 (peptide sequence: RGSSDPTVQR, peptide start residue: 846) | 0.751
3 | UniProt Q7TN98 (peptide sequence: TIFVGGVPRPLR, peptide start residue: 581) | -0.445
4 | UniProt Q71LX4 (peptide sequence: HTSALCNACR, peptide start residue: 1504) | -0.418
5 | UniProt Q80US4 (peptide sequence: GGEYLKEHCASNTYVPIRLPK, peptide start residue: 562) | 0.234
6 | UniProt Q80TA6 (peptide sequence: EETDHLIK, peptide start residue: 581) | 0.413
7 | UniProt Q80TM6 (peptide sequence: DDASMDRDDNQMR, peptide start residue: 260) | 0.464
8 | UniProt Q80TR1 (peptide sequence: MWNDTVR, peptide start residue: 1167) | -0.177
9 | UniProt Q80UM3 (peptide sequence: ILEEFRK, peptide start residue: 170) | 0.259
10 | UniProt Q80TE0 (peptide sequence: PKPGESEVDLLR, peptide start residue: 6) | -0.353
11 | UniProt Q80U93 (peptide sequence: KRLNQLVDSLQQLR, peptide start residue: 867) | -0.35

Part of the list above, tab-delimited:
Row	Target	log2 fold change
6	UniProt Q80TA6 (peptide sequence: EETDHLIK, peptide start residue: 581)	0.413
7	UniProt Q80TM6 (peptide sequence: DDASMDRDDNQMR, peptide start residue: 260)	0.464

— the supplement of paper PMC12819154, “High-throughput peptide-centric local stability assay extends protein–ligand identification to membrane proteins, tissues and bacteria” (Nature Structural & Molecular Biology, 2025)
